Measurements from article doi:10.1101/2025.08.13.669519.
No constants are given. Whether binding was seen depends on the method and setting. Some entries that bind do so weakly or less than the wild type.

Protein sequences, listed by entry. Tags and fused reporters are not part of them. Residues count along the entry.
UniProt P02649, residues 19-317: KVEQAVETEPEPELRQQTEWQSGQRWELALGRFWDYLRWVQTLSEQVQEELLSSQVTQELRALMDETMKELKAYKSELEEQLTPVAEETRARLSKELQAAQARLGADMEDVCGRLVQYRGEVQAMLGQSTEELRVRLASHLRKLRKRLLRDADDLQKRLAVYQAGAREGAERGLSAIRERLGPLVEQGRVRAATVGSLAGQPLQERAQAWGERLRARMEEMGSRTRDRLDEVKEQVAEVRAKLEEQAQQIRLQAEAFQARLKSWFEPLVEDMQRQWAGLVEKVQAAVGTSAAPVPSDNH

Target: Apolipoprotein E3 (human) (UniProt P02649)
Assay: static light scattering

binding: binds weakly
Substance: Apolipoprotein E3 (from UniProt P02649 19-317)
